Data reported in article PMC7550611.
Results are given in words; binding and its absence hold for the method and conditions named. Tags and fused reporters may be left off the sequences shown.

Target: human ADAR1 deaminase domain, wild type (hADAR1d WT), after TEV cleavage of MBP (human) (UniProt P55265)
Assay: native MS; native LC-MS of purified protein at 10 µM; isocratic elution with 200 mM ammonium acetate pH 7.0, column at 23 °C; Q-TOF, positive ion electrospray; both purified

binding: no binding (tested: 10 µM)
B1: human ADAR1 deaminase domain, wild type (hADAR1d WT), after TEV cleavage of MBP (domain or fragment, UniProt P55265 833-1226)
chain: SGGSLPLTGSTFHDQIAMLSHRCFNTLTNSFQPSLLGRKILAAIIMKKDSEDMGVVVSLGTGNRCVKGDSLSLKGETVNDCHAEIISRRGFIRFLYSELMKYNSQTAKDSIFEPAKGGEKLQIKKTVSFHLYISTAPCGDGALFDKSCSDRAMESTESRHYPVFENPKQGKLRTKVENGEGTIPVESSDIVPTWDGIRLGERLRTMSCSDKILRWNVLGLQGALLTHFLQPIYLKSVTLGYLFSQGHLTRAICCRVTRDGSAFEDGLRHPFIVNHPKVGRVSIYDSKRQSGKTKETSVNWCLADGYDLEILDGTRGTVDGPRNELSRVSKKNIFLLFKKLCSFRYRRDLLRLSYGEAKKAARDYETAKNYFKKGLKDMGYGNWISKPQEEKNFYLCPV
